Test results: publication PMC8534408

Key:
[1] = target: SH.SZT2WT (STREP-HA tagged seizure threshold 2, wild type) (human); assay: condition: only cells restimulated with amino acids and growth factors for 20 min; affinity purification with mass spectrometry; as a1, SH.SZT2WT eluates of cells restimulated with amino acids and growth factors for 20 min (STI) set against starved cells (STA); p-value <= 0.05 and fold-change >= …
[2] = target: SH.SZT2WT (STREP-HA tagged seizure threshold 2, wild type) (human); assay: affinity purification with mass spectrometry; SH.SZT2WT or SH.GFP bait from cleared lysate of tetracycline-induced HEK293 Flp-In T-Rex cells held on Strep-Tactin Sepharose, 1 h, 4 °C, 50 mM HEPES pH 8.0, 150 mM NaCl, 5 mM EDTA, 0.5% NP-40, 50 mM NaF; eluted with 2.5 mM D-biotin; LC-MS/MS; cells starved of amino acids and growth factors for 1 h (STA) or restimulated for 20 min (STI); hits: p-value <= 0.05 and fold-change >= 5 over the GFP control

B1: MTMR14 (protein, UniProt Q8NCE2 1-650)
chain: MAGARAAAAAASAGSSASSGNQPPQELGLGELLEEFSRTQYRAKDGSGTGGSKVERIEKRCLELFGRDYCFSVIPNTNGDICGHYPRHIVFLEYESSEKEKDTFESTVQVSKLQDLIHRSKMARCRGRFVCPVILFKGKHICRSATLAGWGELYGRSGYNYFFSGGADDAWADVEDVTEEDCALRSGDTHLFDKVRGYDIKLLRYLSVKYICDLMVENKKVKFGMNVTSSEKVDKAQRYADFTLLSIPYPGCEFFKEYKDRDYMAEGLIFNWKQDYVDAPLSIPDFLTHSLNIDWSQYQCWDLVQQTQNYLKLLLSLVNSDDDSGLLVHCISGWDRTPLFISLLRLSLWADGLIHTSLKPTEILYLTVAYDWFLFGHMLVDRLSKGEEIFFFCFNFLKHITSEEFSALKTQRRKSLPARDGGFTLEDICMLRRKDRGSTTSLGSDFSLVMESSPGATGSFTYEAVELVPAGAPTQAAWRKSHSSSPQSVLWNRPQPSEDRLPSQQGLAEARSSSSSSSNHSDNFFRMGSSPLEVPKPRSVDHPLPGSSLSTDYGSWQMVTGCGSIQERAVLHTDSSLPFSFPDELPNSCLLAALSDRETRLQEVRSAFLAAYSSTVGLRAVAPSPSGAIGGLLEQFARGVGLRSISSNAL
[1]
  binding: no binding
[2]
  binding: binds

B2: SH3GLB1 (protein, UniProt Q9Y371 1-365)
chain: MNIMDFNVKKLAADAGTFLSRAVQFTEEKLGQAEKTELDAHLENLLSKAECTKIWTEKIMKQTEVLLQPNPNARIEEFVYEKLDRKAPSRINNPELLGQYMIDAGTEFGPGTAYGNALIKCGETQKRIGTADRELIQTSALNFLTPLRNFIEGDYKTIAKERKLLQNKRLDLDAAKTRLKKAKAAETRNSSEQELRITQSEFDRQAEITRLLLEGISSTHAHHLRCLNDFVEAQMTYYAQCYQYMLDLQKQLGSFPSNYLSNNNQTSVTPVPSVLPNAIGSSAMASTSGLVITSPSNLSDLKECSGSRKARVLYDYDAANSTELSLLADEVITVFSVVGMDSDWLMGERGNQKGKVPITYLELLN
[1]
  binding: no binding
[2]
  binding: binds

No constants are given. Whether binding was seen depends on the method and setting. Binding seen in cells or lysates may run through a third protein. These calls come from enrichment with a bait or labelling near it, and not all partners need be listed. For some of these results: No binding means not detected with the bait.
